Test results: the supplement of paper PMC10670038
± gives the standard deviation of the averaged measurements. What follows is the remainder of the data, with few or none of the lowest values.

Test system: TE10
Test: relative cell viability vs DMSO, compound + 0.2 uM CuET (fraction); TE10 is an esophageal squamous carcinoma line; higher = less cytotoxic
Details: 2 µM; co-treatment: CuET (bis(diethyldithiocarbamate)copper) 0.2 uM; 48 h
Experimental: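 TE10 ESCC cells (1,000/well, 384-well plates) were treated with Selleck bioactive library compounds at 2 uM combined with 0.2 uM CuET (copper diethyldithiocarbamate) for 48 h. Viability was read by CellTiter-Glo and expressed relative to DMSO wells. Two technical replicates (A, B).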

SMILES	relative cell viability
Cc1c(C(=O)NN2CCCCC2)nn(-c2ccc(Cl)cc2Cl)c1-c1ccc(I)cc1	1.27 ± 0.34
